Measurements: paper PMC3842171 (Bioorganic & medicinal chemistry letters, 2011)

Test system: HDAC activity (HeLa cell lysates)
Assay: Fluor de Lys in vitro fluorescence HDAC activity assay using HeLa cell lysates
Format: biochemical
Details: HeLa cell lysates as source of HDAC activity; mean of three experiments with standard error

O=C(CCCCCCC(=O)Nc1ccccc1)NO [SAHA, suberoylanilide hydroxamic acid, reference compound]
IC50: 90 ± 4 nM
